± gives the standard deviation of the averaged measurements. This is one part of the list.
Compound: Nc1nc2c(ncn2[C@@H]2O[C@H](COP(=O)(O)OP(=O)(O)OP(=O)(O)O)[C@@H](O)[C@H]2O)c(=O)[nH]1 [guanosine triphosphate]
Experiment: NP40-soluble protein abundance relative to vehicle (solubility fold change) (ratio); higher = more soluble protein in presence of GTP
Procedure: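 Solubility proteome profiling in Jurkat crude lysate. Lysate was treated with Mg-GTP (0.1-10 mM) for 10 min at room temperature and 3 min at 37 °C, then solubilised with 0.8% NP40 and benzonase, followed by ultracentrifugation. Proteins were quantified by TMT10 LC-MS/MS; the value is the NP40-soluble abundance relative to the NP40-processed vehicle, from 3 independent experiments.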

Protein sequences, listed by entry. Tags and fused reporters are not part of them. Lines headed by an entry give the natural chain unless they say otherwise; changes in a name come on top.
UniProt P35080, whole entry: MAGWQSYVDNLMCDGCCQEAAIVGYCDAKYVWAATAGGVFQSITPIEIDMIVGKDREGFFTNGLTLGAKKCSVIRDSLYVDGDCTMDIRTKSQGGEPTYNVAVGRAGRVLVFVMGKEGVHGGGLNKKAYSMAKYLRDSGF
UniProt Q9P0J0, whole entry, looked up: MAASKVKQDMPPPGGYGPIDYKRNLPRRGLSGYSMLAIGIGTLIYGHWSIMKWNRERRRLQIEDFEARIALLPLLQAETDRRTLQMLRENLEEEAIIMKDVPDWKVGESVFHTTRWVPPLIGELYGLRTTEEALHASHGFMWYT
UniProt P07602: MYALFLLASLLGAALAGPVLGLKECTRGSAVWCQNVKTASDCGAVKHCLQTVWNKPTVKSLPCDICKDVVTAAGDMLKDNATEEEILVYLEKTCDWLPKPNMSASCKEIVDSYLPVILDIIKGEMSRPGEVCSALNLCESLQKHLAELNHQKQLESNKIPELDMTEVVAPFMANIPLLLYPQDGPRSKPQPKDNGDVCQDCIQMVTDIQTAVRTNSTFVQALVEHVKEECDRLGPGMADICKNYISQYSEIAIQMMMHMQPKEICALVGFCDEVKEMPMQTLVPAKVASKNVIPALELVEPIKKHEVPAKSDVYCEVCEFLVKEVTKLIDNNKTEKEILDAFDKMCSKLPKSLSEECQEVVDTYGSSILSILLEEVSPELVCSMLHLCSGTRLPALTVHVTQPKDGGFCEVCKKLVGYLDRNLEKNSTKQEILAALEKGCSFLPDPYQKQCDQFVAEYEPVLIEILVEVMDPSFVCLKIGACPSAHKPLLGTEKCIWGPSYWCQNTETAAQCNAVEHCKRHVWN
UniProt Q9BYT3: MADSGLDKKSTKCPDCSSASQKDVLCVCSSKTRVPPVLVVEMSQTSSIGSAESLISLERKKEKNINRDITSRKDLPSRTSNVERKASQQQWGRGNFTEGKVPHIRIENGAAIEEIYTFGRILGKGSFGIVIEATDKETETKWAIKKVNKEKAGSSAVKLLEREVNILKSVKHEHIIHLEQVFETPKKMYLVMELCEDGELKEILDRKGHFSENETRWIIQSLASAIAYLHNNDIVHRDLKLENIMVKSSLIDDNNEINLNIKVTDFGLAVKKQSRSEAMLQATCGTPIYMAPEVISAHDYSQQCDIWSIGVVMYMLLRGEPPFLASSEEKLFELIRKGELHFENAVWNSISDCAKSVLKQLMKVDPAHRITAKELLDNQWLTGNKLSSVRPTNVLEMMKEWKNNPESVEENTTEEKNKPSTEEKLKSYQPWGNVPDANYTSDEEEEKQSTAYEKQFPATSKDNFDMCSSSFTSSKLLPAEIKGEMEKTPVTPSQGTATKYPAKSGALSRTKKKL
UniProt Q92925, whole entry: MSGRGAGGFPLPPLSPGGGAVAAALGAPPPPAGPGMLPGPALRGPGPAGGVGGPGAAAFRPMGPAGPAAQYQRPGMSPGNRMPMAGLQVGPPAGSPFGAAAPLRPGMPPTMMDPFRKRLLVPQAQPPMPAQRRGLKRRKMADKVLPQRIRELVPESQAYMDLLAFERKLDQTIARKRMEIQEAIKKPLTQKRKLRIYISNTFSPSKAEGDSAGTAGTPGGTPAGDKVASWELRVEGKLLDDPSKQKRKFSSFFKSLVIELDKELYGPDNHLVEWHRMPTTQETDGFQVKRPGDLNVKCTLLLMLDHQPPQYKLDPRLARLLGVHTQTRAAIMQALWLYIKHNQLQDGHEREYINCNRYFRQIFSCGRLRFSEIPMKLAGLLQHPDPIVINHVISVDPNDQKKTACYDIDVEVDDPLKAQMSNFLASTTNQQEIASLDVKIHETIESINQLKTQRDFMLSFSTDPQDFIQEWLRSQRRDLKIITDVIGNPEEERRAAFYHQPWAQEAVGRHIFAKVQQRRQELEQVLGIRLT

Target | NP40-soluble protein abundance (concentration: 0.1mM) | NP40-soluble protein abundance (concentration: 0.5mM) | NP40-soluble protein abundance (concentration: 1mM) | NP40-soluble protein abundance (concentration: 2mM) | NP40-soluble protein abundance (concentration: 4mM) | NP40-soluble protein abundance (concentration: 6mM) | NP40-soluble protein abundance (concentration: 8mM) | NP40-soluble protein abundance (concentration: 10mM)
C9J0J7 and related entries (UniProt P35080) | 0.97 ± 0.069 | 0.936 ± 0.059 | 0.945 ± 0.066 | 0.902 ± 0.057 | 0.929 ± 0.12 | 0.895 ± 0.092 | 0.914 ± 0.11 | 0.898 ± 0.086
B4DEZ3 and related entries (UniProt Q9P0J0+K7EJE1+E7ENQ6+B4DEZ3) | 1.05 ± 0.15 | 0.942 ± 0.16 | 0.999 ± 0.13 | 1.12 ± 0.23 | 1.11 ± 0.17 | 1.06 ± 0.21 | 0.938 ± 0.1 | 1.01 ± 0.19
C9JIZ6 and related entries (UniProt P07602) | 0.848 ± 0.011 | 0.81 ± 0.047 | 0.97 ± 0.024 | 0.932 ± 0.059 | 0.919 ± 0.066 | 0.933 ± 0.07 | 0.894 ± 0.095 | 0.972 ± 0.011
B4DDH2 and related entries (UniProt Q9BYT3) | 1.03 ± 0.029 | 1.04 ± 0.098 | 0.953 ± 0.051 | 0.953 ± 0.052 | 0.996 ± 0.048 | 0.959 ± 0.023 | 0.974 ± 0.087 | 0.974 ± 0.039
B9EGA3 and related entries (UniProt Q92925) | 1.03 ± 0.038 | 1.06 ± 0.052 | 1.11 ± 0.12 | 1.16 ± 0.17 | 1.24 ± 0.2 | 1.17 ± 0.2 | 1.17 ± 0.19 | 1.19 ± 0.19
